PubChem BioAssay AID493246 | Drosophila RNAi Screening Center, 2011
Assay: 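Genome-wide search for dsRNAs that reduce cell number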 (primary screen). Cells: Drosophila Kc and S2R+ cells. Knock-down reagent: long dsRNA against Drosophila genes. Read-out: 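Raw, unnormalised count of remaining cells in each well; per-plate z-scores of cell number underlie the calls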. Scale: Kc cell number and S2R+ cell number: higher = more cells remaining. Call rule: 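Active when the per-plate z-score of cell number is 3 or more in the direction of fewer cells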.
In all, the deposit lists about 21,000 reagents; below is an unselected part of those that have a named target and a result. In the full data, 429 (2%) are marked active. 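Values are raw and not normalised between plates; calls rest on per-plate z-scores that were not deposited.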 Names joined by + are all predicted targets of the reagent. Not given: the amount of reagent, the time to read-out.

predicted target | amplicon | Kc cell number, rep 1 | Kc cell number, rep 2 | S2R+ cell number, rep 1 | S2R+ cell number, rep 2 | Call
CG14760 | DRSC06495 | 1.47e6 | 1.54e6 | 1.27e6 | 1.34e6 | inactive
rg | DRSC17377 | 1.45e6 | 1.64e6 | 1.11e6 | 1.23e6 | inactive
rg | DRSC17726 | 5.49e5 | – | 9.40e5 | – | inactive
rg | DRSC18049 | 1.61e6 | 1.63e6 | 1.14e6 | 1.24e6 | inactive
CG13654 | DRSC14654 | 1.43e6 | 1.43e6 | 9.77e5 | 1.07e6 | inactive
CG32459 | DRSC11852 | 1.43e6 | 1.53e6 | 1.28e6 | 1.34e6 | inactive
Mcr | DRSC03366 | 1.50e6 | 1.49e6 | 7.93e5 | 8.39e5 | inactive
CG16922 (retired record) | DRSC19758 | 1.59e6 | 1.51e6 | 8.51e5 | 9.73e5 | inactive
Cpr97Ea | DRSC15974 | 1.40e6 | 1.45e6 | 9.64e5 | 1.09e6 | inactive
ValRS | DRSC06864 | 1.20e6 | 1.26e6 | 9.46e5 | 9.82e5 | inactive
DIP-delta | DRSC10214 | 1.30e6 | 1.30e6 | 1.18e6 | 1.17e6 | inactive
DIP-delta | DRSC10450 | 1.25e6 | 1.38e6 | 1.22e6 | 1.22e6 | inactive
CG17637 | DRSC11740 | 1.37e6 | 1.43e6 | 1.19e6 | 1.21e6 | inactive
CG2246 | DRSC15433 | 5.24e5 | – | 8.73e5 | – | inactive
CG13021 | DRSC17893 | 1.26e6 | 1.60e6 | 1.09e6 | 1.28e6 | inactive
CG10628 | DRSC02080 | 1.56e6 | 1.63e6 | 1.29e6 | 4.47e5 | inactive
Argp | DRSC16510 | 1.16e6 | 1.22e6 | 1.19e6 | 1.32e6 | inactive
CG7025 | DRSC03002 | 1.59e6 | 1.70e6 | 1.17e6 | 1.42e6 | inactive
CG5913 | DRSC15916 | 1.48e6 | 1.48e6 | 9.73e5 | 1.04e6 | inactive
CG2889 | DRSC18236 | 1.57e6 | 1.55e6 | 1.04e6 | 1.11e6 | inactive
pyr | DRSC06319 | 1.29e6 | 1.46e6 | 9.80e5 | 1.09e6 | inactive
CG5674 | DRSC02874 | 1.39e6 | 1.42e6 | 9.16e5 | 1.08e6 | inactive
Taf9 | DRSC20326 | 1.72e6 | 1.81e6 | 1.10e6 | 1.24e6 | inactive
CG11977 | DRSC14454 | 1.58e6 | 1.63e6 | 1.15e6 | 1.28e6 | inactive
CG6171 | DRSC15982 | 1.57e6 | 1.66e6 | 1.25e6 | 1.35e6 | inactive
Rab9Db + Rab9Fa | DRSC18445 | 1.54e6 | 1.53e6 | 1.02e6 | 1.13e6 | inactive
PIG-L | DRSC15577 | 1.47e6 | 1.44e6 | 1.08e6 | 1.20e6 | inactive
CG33453 | DRSC05782 | 5.62e5 | – | 8.20e5 | – | inactive
EAChm | DRSC10010 | 1.35e6 | 1.40e6 | 1.28e6 | 1.34e6 | inactive
Sec22 | DRSC18538 | 5.81e5 | – | 7.38e5 | – | inactive
CG10232 | DRSC14218 | 1.52e6 | 1.52e6 | 9.76e5 | 1.07e6 | inactive
CenB1A | DRSC16923 | 1.71e6 | 1.62e6 | 1.07e6 | 1.20e6 | inactive
CG17404 | DRSC15234 | 1.72e6 | 1.78e6 | 1.20e6 | 1.31e6 | inactive
CG6290 | DRSC19979 | 1.64e6 | 1.65e6 | 1.12e6 | 1.21e6 | inactive
CG13538 | DRSC04180 | 1.81e6 | 1.86e6 | 1.24e6 | 1.47e6 | inactive
CG16965 | DRSC02547 | 1.61e6 | 1.66e6 | 1.35e6 | 1.48e6 | inactive
Tusp | DRSC15838 | 1.60e6 | 1.71e6 | 1.02e6 | 1.18e6 | inactive
CG2794 | DRSC00534 | 1.51e6 | 1.56e6 | 1.06e6 | 1.30e6 | inactive
Spn43Ab | DRSC06781 | 1.42e6 | 1.51e6 | 1.24e6 | 1.38e6 | inactive
mRpL19 | DRSC16367 | 1.28e6 | 1.30e6 | 9.25e5 | 1.11e6 | inactive
TpnC47D | DRSC07564 | 1.59e6 | 1.63e6 | 1.18e6 | 1.32e6 | inactive
CG3345 | DRSC00596 | 1.33e6 | 1.30e6 | 9.95e5 | 9.24e5 | inactive
CG17292 | DRSC02594 | 1.18e6 | 1.47e6 | 2.20e5 | 1.85e5 | inactive
Cpr78E | DRSC11807 | 1.40e6 | 1.34e6 | 1.30e6 | 1.39e6 | inactive
CG14082 | DRSC10086 | 1.49e6 | 1.59e6 | 1.27e6 | 1.37e6 | inactive
Abi | DRSC14099 | 1.38e6 | 1.47e6 | 1.21e6 | 1.21e6 | inactive
CG6800 | DRSC16119 | 1.44e6 | 1.39e6 | 1.12e6 | 1.23e6 | inactive
Hug | DRSC16969 | 1.43e6 | 1.43e6 | 1.31e6 | 1.39e6 | inactive
CG11815 | DRSC08209 | 1.51e6 | 1.32e6 | 9.31e5 | 1.28e6 | inactive
CG11437 | DRSC11659 | 1.88e6 | 2.34e6 | 1.30e6 | 1.41e6 | inactive
CG11317 | DRSC14299 | 5.63e5 | – | 7.82e5 | – | inactive
lama | DRSC11361 | 1.16e6 | 1.25e6 | 1.39e6 | 1.38e6 | inactive
Chmp1 | DRSC10401 | 1.52e6 | 1.61e6 | 1.30e6 | 1.27e6 | inactive
CG17019 | DRSC06642 | 1.56e6 | 1.60e6 | 1.23e6 | 1.28e6 | inactive
CG34160 | DRSC01131 | 1.47e6 | 1.54e6 | 9.89e5 | 1.10e6 | inactive
CG42758 | DRSC10021 | 1.34e6 | 1.36e6 | 1.21e6 | 1.28e6 | inactive
Tsp42Ej | DRSC06113 | 1.28e6 | 1.42e6 | 1.19e6 | 1.10e6 | inactive
Pkcdelta | DRSC19356 | 1.59e6 | 1.47e6 | 1.13e6 | 1.15e6 | inactive
Pkcdelta | DRSC19399 | 1.57e6 | 1.62e6 | 1.05e6 | 1.18e6 | inactive

Reformatted: entries from further up
predicted target,amplicon,"Kc cell number, rep 1","Kc cell number, rep 2","S2R+ cell number, rep 1","S2R+ cell number, rep 2",Call
Argp,DRSC16510,1.16e6,1.22e6,1.19e6,1.32e6,inactive
CG7025,DRSC03002,1.59e6,1.70e6,1.17e6,1.42e6,inactive
CG5913,DRSC15916,1.48e6,1.48e6,9.73e5,1.04e6,inactive
CG2889,DRSC18236,1.57e6,1.55e6,1.04e6,1.11e6,inactive
